Assay results reported in PMC6019204.
No constants are given. Whether binding was seen depends on the method and setting. Binding seen in cells or lysates may run through a third protein. Some binding calls cover weakened binding; strength is not graded here.

Sequences of proteins named here, by UniProt entry; tags and fusion partners are left off. A change or cut given only in a name is not applied to a line headed by its entry. A line that says so, or that is headed by a name, gives the form on record, which may keep a tag or linker.
ER-α36 (Estrogen receptor-alpha36) (P03372-4, form named): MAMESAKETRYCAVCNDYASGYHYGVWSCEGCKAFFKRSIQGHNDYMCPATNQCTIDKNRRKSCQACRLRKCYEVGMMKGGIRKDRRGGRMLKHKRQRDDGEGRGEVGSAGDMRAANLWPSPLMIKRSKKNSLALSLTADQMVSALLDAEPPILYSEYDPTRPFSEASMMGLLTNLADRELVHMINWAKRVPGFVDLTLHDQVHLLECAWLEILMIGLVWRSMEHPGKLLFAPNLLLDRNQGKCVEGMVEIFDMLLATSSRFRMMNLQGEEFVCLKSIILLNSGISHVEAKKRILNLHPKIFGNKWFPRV

What was measured:
[1] = target: Epidermal growth factor receptor (human (endogenous in MCF-7)) (UniProt P00533); assay: co-IP; MCF-7 cells treated with or without 5 μg/mL cisplatin for 48 h; lysates incubated with anti-HER-2 or anti-EGFR antibodies or IgG for 1 h at 4 °C, Protein A/G plus-agarose overnight at 4 °C, washed with PBS; precipitates probed with anti-ER-α36 antibody
[2] = target: Human epidermal growth factor receptor-2 (human (endogenous in MCF-7)) (UniProt P04626); assay: as above

binding [1]: binds
binding [2]: binds
Substance: ER-α36 (Estrogen receptor-alpha36) (from UniProt P03372-4 1-310)
